Test results reported in the supplement of paper PMC10849652.
Some of the results follow.

By UniProt entry, the sequences of proteins in these tests, tags left out. Where a name states a change or a piece, a line headed by the entry shows the natural chain unless it says otherwise.
UniProt Q14195, whole entry, looked up: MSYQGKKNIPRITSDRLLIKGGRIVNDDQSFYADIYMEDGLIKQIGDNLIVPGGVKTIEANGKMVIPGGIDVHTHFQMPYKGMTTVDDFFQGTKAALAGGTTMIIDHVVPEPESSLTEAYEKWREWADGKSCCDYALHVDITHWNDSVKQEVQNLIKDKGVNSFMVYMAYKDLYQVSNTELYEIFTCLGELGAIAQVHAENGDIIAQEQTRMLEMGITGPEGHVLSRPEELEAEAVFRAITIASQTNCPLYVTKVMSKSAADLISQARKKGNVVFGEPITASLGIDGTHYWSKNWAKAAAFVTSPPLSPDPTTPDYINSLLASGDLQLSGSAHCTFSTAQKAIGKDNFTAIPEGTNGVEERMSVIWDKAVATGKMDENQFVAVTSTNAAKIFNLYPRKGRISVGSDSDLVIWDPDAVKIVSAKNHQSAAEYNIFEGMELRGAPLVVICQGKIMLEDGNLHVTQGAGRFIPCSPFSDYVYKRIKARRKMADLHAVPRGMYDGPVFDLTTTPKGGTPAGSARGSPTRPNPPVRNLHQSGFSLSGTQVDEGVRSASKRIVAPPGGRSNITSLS
UniProt Q8NBA8: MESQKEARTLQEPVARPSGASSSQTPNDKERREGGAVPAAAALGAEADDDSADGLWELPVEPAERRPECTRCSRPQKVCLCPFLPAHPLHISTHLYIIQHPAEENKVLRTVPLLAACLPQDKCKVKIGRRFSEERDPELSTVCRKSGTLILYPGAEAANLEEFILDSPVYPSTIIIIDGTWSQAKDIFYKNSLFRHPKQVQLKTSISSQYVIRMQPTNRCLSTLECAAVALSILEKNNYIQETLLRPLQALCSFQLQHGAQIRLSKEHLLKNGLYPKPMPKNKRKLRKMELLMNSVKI
UniProt O14576, whole entry, looked up: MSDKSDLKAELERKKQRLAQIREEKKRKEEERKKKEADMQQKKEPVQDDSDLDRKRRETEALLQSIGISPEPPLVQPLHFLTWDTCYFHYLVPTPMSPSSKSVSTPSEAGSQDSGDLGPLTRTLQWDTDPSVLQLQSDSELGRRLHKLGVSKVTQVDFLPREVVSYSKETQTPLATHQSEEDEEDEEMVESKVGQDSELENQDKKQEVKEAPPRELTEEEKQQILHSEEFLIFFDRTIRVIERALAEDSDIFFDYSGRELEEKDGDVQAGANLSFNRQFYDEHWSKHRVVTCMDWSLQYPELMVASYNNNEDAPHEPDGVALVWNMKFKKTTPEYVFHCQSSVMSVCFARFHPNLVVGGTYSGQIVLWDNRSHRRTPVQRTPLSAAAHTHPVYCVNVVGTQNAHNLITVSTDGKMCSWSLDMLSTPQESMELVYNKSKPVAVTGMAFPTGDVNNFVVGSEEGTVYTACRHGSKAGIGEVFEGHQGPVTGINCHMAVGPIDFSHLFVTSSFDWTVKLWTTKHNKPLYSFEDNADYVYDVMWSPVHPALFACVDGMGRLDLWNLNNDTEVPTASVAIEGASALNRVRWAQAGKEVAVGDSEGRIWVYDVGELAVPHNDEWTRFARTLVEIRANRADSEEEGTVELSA
UniProt Q6UX65: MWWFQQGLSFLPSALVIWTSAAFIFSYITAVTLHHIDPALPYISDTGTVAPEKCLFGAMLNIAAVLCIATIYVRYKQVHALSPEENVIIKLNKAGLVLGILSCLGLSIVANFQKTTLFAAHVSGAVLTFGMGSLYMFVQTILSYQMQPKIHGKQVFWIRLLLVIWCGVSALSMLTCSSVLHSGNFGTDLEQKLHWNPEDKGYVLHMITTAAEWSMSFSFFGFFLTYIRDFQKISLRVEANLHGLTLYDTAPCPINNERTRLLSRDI
UniProt Q9NP97, whole entry, looked up: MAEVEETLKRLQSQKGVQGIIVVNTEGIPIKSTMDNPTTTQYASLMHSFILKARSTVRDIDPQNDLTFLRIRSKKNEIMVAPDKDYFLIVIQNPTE
UniProt Q96FX2: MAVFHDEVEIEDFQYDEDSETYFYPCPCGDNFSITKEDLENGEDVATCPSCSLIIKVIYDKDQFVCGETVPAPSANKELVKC
UniProt O43324: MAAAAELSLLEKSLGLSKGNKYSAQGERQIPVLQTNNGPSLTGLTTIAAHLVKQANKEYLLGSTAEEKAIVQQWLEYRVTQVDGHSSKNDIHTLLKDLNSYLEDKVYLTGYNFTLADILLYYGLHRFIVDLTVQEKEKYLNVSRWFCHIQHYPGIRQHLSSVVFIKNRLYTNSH
UniProt Q8TCX1: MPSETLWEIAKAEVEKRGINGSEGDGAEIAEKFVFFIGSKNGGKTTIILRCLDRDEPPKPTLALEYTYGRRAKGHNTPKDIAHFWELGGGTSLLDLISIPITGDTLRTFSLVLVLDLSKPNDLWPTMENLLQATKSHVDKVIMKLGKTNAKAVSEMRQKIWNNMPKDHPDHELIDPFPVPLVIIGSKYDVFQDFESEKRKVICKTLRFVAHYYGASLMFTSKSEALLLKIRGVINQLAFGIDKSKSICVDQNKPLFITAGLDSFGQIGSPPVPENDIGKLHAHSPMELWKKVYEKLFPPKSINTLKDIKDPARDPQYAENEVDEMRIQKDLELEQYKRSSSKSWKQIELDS
UniProt P29692: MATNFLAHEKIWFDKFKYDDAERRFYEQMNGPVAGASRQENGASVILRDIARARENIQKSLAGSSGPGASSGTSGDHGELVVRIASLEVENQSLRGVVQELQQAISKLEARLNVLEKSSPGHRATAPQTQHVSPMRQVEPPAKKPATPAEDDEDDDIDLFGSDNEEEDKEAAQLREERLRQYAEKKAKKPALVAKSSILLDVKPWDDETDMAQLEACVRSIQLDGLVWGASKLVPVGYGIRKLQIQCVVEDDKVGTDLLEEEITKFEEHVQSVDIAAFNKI
UniProt O95147: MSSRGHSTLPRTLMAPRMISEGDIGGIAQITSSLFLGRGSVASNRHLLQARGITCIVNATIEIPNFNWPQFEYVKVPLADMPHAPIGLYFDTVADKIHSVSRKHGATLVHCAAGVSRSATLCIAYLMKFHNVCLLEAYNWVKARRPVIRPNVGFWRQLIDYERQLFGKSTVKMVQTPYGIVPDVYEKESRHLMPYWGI
UniProt O14640: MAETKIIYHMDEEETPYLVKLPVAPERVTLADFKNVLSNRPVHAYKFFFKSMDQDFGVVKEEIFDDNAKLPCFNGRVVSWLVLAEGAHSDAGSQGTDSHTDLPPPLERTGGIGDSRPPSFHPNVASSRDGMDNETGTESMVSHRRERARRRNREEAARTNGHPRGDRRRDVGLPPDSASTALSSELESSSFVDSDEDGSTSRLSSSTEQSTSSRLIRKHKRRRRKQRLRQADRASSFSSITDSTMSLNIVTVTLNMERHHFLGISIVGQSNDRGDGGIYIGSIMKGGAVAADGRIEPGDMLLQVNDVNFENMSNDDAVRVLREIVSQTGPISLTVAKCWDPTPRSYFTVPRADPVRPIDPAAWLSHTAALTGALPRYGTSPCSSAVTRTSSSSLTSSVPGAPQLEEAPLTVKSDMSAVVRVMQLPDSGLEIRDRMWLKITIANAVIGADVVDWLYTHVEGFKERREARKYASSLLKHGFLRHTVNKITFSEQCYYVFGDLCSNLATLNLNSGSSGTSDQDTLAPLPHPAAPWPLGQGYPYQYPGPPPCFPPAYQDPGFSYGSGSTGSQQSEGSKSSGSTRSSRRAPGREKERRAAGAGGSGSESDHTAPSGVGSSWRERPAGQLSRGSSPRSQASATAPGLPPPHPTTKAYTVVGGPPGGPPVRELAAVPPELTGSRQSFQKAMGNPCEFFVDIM
UniProt Q7L9B9: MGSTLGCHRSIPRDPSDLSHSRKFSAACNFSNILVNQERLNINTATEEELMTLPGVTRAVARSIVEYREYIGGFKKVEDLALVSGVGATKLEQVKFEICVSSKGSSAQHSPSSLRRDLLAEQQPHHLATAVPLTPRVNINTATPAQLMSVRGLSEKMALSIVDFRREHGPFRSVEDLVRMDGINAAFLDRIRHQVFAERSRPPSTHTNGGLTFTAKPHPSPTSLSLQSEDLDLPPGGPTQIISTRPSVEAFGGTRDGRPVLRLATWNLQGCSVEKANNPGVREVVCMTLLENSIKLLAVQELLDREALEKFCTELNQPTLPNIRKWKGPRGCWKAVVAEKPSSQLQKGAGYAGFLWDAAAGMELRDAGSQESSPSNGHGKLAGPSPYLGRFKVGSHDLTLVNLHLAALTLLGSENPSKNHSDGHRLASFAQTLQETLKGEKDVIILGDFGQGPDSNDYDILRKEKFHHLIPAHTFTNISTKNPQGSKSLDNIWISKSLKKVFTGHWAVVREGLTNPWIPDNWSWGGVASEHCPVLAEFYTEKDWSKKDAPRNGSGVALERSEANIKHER
UniProt Q01658: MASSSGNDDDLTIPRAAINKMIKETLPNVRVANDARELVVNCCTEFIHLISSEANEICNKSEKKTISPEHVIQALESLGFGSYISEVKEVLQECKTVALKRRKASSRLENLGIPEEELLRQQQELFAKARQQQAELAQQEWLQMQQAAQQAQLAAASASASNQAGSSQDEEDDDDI
UniProt Q9P2X0: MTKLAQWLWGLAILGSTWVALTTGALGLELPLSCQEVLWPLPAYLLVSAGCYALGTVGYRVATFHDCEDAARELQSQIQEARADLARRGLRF
UniProt Q9UNI6, whole entry, looked up: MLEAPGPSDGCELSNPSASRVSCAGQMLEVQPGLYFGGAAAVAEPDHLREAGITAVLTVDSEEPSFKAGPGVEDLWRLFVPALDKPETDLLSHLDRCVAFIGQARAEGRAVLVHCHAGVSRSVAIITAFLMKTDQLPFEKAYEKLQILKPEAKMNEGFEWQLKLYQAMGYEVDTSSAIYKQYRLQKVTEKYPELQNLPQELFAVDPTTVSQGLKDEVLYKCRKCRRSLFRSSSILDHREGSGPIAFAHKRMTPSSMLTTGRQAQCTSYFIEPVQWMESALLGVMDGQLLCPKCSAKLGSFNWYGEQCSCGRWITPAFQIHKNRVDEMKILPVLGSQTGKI
UniProt Q96FN9: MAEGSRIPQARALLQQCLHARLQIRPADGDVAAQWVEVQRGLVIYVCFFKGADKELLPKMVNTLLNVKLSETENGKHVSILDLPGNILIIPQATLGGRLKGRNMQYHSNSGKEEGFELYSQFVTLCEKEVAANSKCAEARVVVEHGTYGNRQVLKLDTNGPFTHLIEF
UniProt P51808: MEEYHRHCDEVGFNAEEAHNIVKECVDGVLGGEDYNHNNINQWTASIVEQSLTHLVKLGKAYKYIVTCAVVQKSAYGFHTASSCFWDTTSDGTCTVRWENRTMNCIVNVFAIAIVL
UniProt Q9NRR4: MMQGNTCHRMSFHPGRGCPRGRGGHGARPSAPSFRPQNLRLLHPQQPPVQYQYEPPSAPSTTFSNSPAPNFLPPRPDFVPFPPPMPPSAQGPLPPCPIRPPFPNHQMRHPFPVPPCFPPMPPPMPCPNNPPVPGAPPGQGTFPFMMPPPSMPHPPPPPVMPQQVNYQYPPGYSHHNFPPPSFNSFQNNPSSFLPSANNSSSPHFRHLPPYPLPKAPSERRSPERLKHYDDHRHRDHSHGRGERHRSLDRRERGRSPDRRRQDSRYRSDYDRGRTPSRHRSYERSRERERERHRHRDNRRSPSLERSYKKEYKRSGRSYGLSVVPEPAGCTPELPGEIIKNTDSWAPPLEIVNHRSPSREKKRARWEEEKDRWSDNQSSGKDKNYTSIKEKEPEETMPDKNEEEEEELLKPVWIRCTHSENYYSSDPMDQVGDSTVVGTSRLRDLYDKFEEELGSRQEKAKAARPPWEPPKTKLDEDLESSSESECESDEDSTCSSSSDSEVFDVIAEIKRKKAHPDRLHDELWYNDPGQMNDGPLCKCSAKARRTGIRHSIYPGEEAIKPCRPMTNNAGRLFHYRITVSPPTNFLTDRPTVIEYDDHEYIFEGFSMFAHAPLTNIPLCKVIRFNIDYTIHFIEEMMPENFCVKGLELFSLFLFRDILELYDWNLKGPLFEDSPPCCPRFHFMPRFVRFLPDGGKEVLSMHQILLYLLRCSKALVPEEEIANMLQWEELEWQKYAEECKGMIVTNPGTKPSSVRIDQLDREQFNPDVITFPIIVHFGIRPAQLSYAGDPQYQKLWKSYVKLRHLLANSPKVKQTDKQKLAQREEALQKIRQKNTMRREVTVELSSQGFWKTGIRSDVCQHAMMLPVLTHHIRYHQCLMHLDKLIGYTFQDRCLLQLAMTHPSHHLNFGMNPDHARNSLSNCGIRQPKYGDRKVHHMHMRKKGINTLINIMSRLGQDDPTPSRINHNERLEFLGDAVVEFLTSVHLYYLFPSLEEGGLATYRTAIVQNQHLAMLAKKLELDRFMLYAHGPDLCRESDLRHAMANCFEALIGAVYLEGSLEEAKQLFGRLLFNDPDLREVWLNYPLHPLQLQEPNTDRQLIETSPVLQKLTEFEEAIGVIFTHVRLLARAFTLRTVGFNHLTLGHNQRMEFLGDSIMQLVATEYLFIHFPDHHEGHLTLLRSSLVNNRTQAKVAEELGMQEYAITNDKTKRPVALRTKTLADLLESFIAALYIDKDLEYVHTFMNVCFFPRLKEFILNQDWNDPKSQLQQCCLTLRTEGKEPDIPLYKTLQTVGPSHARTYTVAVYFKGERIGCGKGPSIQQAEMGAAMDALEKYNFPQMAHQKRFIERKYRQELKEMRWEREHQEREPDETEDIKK

What was measured:
Test in all cases: log2 fold change, soluble protein after heating vs DMSO (PISA); higher = thermal stabilisation; K562 lysate, 10 uM; active = over 0.2 and 3.5 SD of the protein, either way, in both replicates (recomputed)
vorinostat = compound: O=C(CCCCCCC(=O)Nc1ccccc1)NO [vorinostat]
How it was run: (§1)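 Dounce homogenisation of K562 pellets in PBS pH 7.4 with 1 mM MgCl2 produced a crude extract, used at 1 mg/mL protein. Exposure to 10 μM compound lasted 30 min, and aliquots were then heated for 3 min across 48°C-58°C, pooled and brought to 0.5% NP-40 at 4°C. The supernatant after 21,000xg for 90 min was quantified by TMTpro 16plex LC-MS/MS with channel sums equalised. Duplicate values are given as log-two fold change in thermal stability relative to solvent controls.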

silmitasertib = compound: O=C(O)c1ccc2c(c1)nc(Nc1cccc(Cl)c1)c1ccncc12 [silmitasertib]
How it was run: as §1

entospletinib = compound: c1cn2cc(-c3ccc4cn[nH]c4c3)nc(Nc3ccc(N4CCOCC4)cc3)c2n1 [entospletinib]
How it was run: as §1

[1] = compound: NCC(=O)Nc1ccc(-n2nc(C(F)(F)F)cc2-c2ccc3c(ccc4ccccc43)c2)cc1
How it was run: as §1

[2] = compound: O=C1NC(=O)C(c2cnc3ccccn23)=C1c1cn2c3c(cc(F)cc13)CN(C(=O)N1CCCCC1)CC2
How it was run: as §1

Measured: log2 fold change

EID1 (UniProt Q9Y6B2)
inactive: vorinostat -0.192 | silmitasertib 0.191 | entospletinib -0.143

EFR3A (UniProt Q14156)
inactive: [1] -0.038 | vorinostat -0.261 | silmitasertib 0.084 | entospletinib -0.143

EAF1 (UniProt Q96JC9)
inactive: [1] -0.082 | vorinostat 0.121 | silmitasertib -0.086 | [2] 0.044 | entospletinib 0.029

DPYSL3 isoform 2 (UniProt Q14195)
inactive: [2] 0.028 | entospletinib -0.17

DTWD2 (UniProt Q8NBA8)
inactive: vorinostat -0.221 | silmitasertib 0.107 | [2] -0.023

DSCAML1 (UniProt Q8TD84)
inactive: [2] 0.016

DYRK1A isoform 2 (UniProt Q13627)
inactive: vorinostat -0.222 | silmitasertib -0.035 | [2] 0.002

DYNC1I1 (UniProt O14576)
inactive: [1] 0.094 | vorinostat 0.182 | silmitasertib 0.241 | entospletinib 0.028

EGLN2 (UniProt Q96KS0)
inactive: [1] -0.094 | [2] 0.03 | entospletinib -0.018

DRAM2 (UniProt Q6UX65)
inactive: [2] -0.014

DYNLRB1 (UniProt Q9NP97)
inactive: [1] -0.023 | vorinostat 0.124 | silmitasertib -0.048 | [2] 0.07 | entospletinib -0.086

DPH3 (UniProt Q96FX2)
inactive: [1] -0.038 | [2] 0.059 | entospletinib 0.01

DUSP19 (UniProt Q8WTR2)
inactive: vorinostat -0.354 | silmitasertib -0.064 | [2] -0.093

DUSP13 isoform 4 (UniProt Q9UII6)
inactive: vorinostat 0.147 | silmitasertib -0.062

DST isoform 3 (UniProt Q03001)
inactive: vorinostat -0.041 | silmitasertib 0.087 | entospletinib -0.004

EEF1E1 (UniProt O43324)
inactive: [1] -0.018 | vorinostat -0.233 | silmitasertib -0.012 | [2] 0.01 | entospletinib 0.012

DYNC2LI1 (UniProt Q8TCX1)
inactive: [1] 0.047 | [2] 0.165

EEF2 (UniProt P13639)
inactive: [1] 0.011 | vorinostat 0.023 | silmitasertib 0.012 | [2] 0.014 | entospletinib -0.004

EEF1D isoform 3 (UniProt P29692)
inactive: vorinostat 0.07 | silmitasertib -0.081 | [2] 0.2

DUSP14 (UniProt O95147)
inactive: [1] -0.043 | vorinostat -0.33 | silmitasertib -0.129 | entospletinib 0.004

DVL1 (UniProt O14640)
inactive: [1] 0.15 | entospletinib 0.122

DRAP1 (UniProt E9PQX9)
inactive: [1] 0.032 | entospletinib 0.026

EEF1AKMT1 (UniProt Q8WVE0)
inactive: vorinostat -0.098 | silmitasertib 0 | [2] 0.287 | entospletinib -0.037

DZIP3 (UniProt Q86Y13)
inactive: vorinostat -0.298 | silmitasertib 0.077

EEPD1 (UniProt Q7L9B9)
inactive: [2] 0.112

DR1 (UniProt Q01658)
inactive: [1] 0.019 | vorinostat 0.122 | silmitasertib -0.06 | [2] 0.035 | entospletinib 0.057

DPM3 isoform 2 (UniProt Q9P2X0)
inactive: vorinostat 0.029 | silmitasertib 0.022 | [2] 0.014

DUSP12 (UniProt Q9UNI6)
inactive: [1] 0.009 | vorinostat 0.031 | silmitasertib 0.028 | [2] -0.016 | entospletinib 0.007

DYNC2H1 isoform 2 (UniProt Q8NCM8)
inactive: [1] 0.044 | vorinostat 0.037 | silmitasertib -0.015 | entospletinib 0.028

DTD2 (UniProt Q96FN9)
inactive: [1] 0.1 | vorinostat 0.05 | silmitasertib 0.026 | [2] 0.007 | entospletinib 0.123

EFCAB2 isoform 2 (UniProt Q5VUJ9)
inactive: vorinostat 0.156 | silmitasertib 0.096 | [2] -0.124 | entospletinib 0.031

Three successive entries out of the list so far, quoted:
EAF1 (UniProt Q96JC9)
inactive: [1] -0.082 | vorinostat 0.121 | silmitasertib -0.086 | [2] 0.044 | entospletinib 0.029

DPYSL3 isoform 2 (UniProt Q14195)
inactive: [2] 0.028 | entospletinib -0.17

DTWD2 (UniProt Q8NBA8)
inactive: vorinostat -0.221 | silmitasertib 0.107 | [2] -0.023

(next part)

DYNLT3 (UniProt P51808)
inactive: vorinostat 0.226 | silmitasertib -0.044 | [2] -0.008

DTX2 (UniProt Q86UW9)
inactive: vorinostat -0.082 | silmitasertib 0.014 | [2] 0.021

EEF1G isoform 2 (UniProt P26641)
inactive: [1] -0.048 | vorinostat -0.145 | silmitasertib 0.038 | [2] -0.023 | entospletinib 0.016

DROSHA (UniProt Q9NRR4)
inactive: [1] 0.051 | vorinostat -0.294 | silmitasertib -0.026 | [2] -0.052 | entospletinib -0.086
